Laboratory results as given in PMC11044841.
No constants are given. Whether binding was seen depends on the method and setting. Binding seen in cells or lysates may run through a third protein. A yes stands for co-enrichment or nearness to the bait. Other partners may have been found. For some of these results: A no says only that the protein was not detected with the bait.

Sequences of proteins named here, by UniProt entry; tags and fusion partners are left off. A change or cut given only in a name is not applied to a line headed by its entry.
UniProt Q13283: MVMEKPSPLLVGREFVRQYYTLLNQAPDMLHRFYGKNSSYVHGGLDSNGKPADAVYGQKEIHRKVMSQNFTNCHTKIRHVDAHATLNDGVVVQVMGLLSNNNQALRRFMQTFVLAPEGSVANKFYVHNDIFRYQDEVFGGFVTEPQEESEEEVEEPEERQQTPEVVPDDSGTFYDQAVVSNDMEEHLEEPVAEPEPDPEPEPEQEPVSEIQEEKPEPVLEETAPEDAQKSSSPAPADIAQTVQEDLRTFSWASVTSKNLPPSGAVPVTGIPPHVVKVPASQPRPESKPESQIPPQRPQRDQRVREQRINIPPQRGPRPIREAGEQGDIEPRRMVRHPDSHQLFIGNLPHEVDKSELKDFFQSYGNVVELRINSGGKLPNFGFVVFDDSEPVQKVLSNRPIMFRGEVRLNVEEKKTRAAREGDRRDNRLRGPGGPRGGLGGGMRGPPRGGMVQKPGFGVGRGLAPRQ
UniProt P49790: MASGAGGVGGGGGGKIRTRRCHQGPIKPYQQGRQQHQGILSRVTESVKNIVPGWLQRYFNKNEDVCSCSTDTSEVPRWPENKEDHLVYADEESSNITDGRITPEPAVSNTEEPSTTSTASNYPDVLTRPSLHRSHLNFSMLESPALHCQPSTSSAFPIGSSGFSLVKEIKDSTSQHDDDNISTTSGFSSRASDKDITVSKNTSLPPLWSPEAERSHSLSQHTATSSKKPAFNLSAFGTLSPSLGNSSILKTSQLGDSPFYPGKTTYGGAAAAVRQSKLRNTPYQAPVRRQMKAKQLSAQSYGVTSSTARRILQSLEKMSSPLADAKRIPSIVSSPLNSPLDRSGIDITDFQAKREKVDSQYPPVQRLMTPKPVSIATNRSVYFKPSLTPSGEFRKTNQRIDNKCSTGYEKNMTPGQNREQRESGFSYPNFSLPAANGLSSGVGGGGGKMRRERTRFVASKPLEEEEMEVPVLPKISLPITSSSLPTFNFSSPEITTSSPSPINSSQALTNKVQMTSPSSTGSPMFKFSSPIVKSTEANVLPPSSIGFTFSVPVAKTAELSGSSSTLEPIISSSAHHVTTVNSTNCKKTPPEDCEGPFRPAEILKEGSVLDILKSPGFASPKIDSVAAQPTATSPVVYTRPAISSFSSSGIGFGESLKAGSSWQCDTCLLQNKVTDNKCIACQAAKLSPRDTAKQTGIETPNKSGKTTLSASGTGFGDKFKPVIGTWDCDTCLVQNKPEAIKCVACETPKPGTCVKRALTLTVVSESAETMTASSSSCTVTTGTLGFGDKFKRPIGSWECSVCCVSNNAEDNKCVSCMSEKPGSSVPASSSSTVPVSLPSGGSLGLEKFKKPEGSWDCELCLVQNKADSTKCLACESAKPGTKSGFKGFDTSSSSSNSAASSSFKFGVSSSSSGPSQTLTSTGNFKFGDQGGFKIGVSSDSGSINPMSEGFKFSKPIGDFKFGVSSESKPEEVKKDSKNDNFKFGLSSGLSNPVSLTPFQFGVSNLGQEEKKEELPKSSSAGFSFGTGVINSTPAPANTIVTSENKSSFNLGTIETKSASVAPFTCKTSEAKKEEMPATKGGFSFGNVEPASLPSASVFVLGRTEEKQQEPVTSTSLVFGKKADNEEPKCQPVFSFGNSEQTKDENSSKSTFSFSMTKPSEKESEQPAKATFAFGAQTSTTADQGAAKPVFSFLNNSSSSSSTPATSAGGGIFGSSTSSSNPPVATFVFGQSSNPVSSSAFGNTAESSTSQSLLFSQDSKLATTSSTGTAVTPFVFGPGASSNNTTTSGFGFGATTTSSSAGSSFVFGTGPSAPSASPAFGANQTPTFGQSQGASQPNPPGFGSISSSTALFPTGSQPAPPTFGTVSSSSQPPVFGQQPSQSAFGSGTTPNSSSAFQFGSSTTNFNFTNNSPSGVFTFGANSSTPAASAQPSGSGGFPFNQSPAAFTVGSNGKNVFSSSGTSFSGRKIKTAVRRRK
UniProt P51114: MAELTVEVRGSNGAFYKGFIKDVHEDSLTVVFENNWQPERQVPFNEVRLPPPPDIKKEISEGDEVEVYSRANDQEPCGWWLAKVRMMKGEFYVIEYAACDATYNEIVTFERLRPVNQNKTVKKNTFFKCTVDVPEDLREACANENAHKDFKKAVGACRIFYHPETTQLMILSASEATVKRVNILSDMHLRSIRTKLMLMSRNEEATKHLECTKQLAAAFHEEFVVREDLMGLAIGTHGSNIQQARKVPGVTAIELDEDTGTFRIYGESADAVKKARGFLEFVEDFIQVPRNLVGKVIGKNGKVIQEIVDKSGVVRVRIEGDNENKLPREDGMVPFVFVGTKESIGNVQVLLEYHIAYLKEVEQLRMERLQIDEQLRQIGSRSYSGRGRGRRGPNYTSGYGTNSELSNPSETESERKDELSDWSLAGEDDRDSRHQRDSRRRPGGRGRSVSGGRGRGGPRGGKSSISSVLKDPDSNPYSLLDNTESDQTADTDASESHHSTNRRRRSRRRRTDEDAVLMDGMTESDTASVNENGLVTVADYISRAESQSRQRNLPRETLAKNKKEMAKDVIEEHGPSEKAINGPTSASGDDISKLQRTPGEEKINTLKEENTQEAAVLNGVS
UniProt Q14157: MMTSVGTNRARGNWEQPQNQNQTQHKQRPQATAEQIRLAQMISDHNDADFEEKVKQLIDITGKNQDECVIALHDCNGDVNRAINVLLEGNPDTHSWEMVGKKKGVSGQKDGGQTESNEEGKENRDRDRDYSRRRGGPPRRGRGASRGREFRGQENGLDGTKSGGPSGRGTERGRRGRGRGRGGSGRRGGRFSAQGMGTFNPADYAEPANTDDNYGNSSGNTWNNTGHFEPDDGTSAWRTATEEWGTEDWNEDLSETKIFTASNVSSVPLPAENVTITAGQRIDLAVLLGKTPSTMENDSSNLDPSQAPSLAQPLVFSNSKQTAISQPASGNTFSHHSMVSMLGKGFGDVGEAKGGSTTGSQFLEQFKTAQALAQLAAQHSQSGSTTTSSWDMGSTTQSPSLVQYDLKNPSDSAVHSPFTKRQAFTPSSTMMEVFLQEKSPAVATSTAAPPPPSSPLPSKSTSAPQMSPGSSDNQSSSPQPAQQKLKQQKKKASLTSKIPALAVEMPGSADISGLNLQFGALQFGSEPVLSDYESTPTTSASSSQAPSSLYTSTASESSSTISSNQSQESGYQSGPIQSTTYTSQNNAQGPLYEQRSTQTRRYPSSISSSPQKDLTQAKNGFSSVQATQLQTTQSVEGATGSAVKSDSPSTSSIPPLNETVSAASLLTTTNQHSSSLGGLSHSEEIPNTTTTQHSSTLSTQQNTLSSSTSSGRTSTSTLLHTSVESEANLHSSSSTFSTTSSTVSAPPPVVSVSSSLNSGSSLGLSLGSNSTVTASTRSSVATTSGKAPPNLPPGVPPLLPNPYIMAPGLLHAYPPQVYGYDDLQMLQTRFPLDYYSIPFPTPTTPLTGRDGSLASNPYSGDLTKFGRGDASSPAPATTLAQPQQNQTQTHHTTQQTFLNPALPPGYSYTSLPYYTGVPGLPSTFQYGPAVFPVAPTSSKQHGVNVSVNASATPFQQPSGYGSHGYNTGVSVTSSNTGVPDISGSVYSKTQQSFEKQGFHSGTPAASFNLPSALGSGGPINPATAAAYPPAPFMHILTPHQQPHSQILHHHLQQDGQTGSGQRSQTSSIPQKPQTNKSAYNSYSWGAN

Experiments:
Experiment in all cases: affinity purification with mass spectrometry
[1] = molecular target: G3BP1-EGFP (human) (UniProt Q13283)
[2] = molecular target: G3BP1-F112A-EGFP (human) (UniProt Q13283)
[3] = molecular target: G3BP1-F124W-EGFP (human) (UniProt Q13283)
[4] = molecular target: G3BP1-V11A-EGFP (human) (UniProt Q13283)

For Nup153 (from UniProt P49790 1-1475), the binding [1] was “binds”, the binding [2] was “no binding” and the binding [3] was “binds”. For the same substance, the binding [4] was “no binding”.

With FXR1 (from UniProt P51114 1-621) the binding [2] was “binds” and the binding [3] was “binds”.

UBP2L (from UniProt Q14157 1-1087) was tested, and the binding [1] was “binds”, the binding [2] was “binds” and the binding [3] was “binds”. The binding [4] was “no binding”.
